Test results: patent US8148333B2, “Stable composition comprising a PTHrP analogue” (priority 2006, dated 2012)
For at least one compound, name, drawing or mass did not settle the structure.

Key:
[1] = Preservative stability: preservative content (Table 7); assay type: physicochemical; details: 5 and 25° C. storage
Bacteria; Yeast and mold = experiment: Anti-microbial effectiveness test, overall result (conformity); assay type: cell-based

Compound: Cc1cc(O)ccc1Cl [Chlorocresol]
- preservative stability (loss in preservative content) [1]: lower stability
- preservative efficacy for both Bacteria and Yeasts/moulds (Bacteria; Yeast and mold; after 3 and 4.5 months storage): maintained
- preservative effectiveness results for both Bacteria and Yeasts/moulds (Bacteria; Yeast and mold; immediately after manufacture): compliant
